# The list shows a part of the results.
# The chains behind the UniProt entries cited, without tags or fusion partners. Where a name states a change or a piece, a line headed by the entry shows the natural chain unless it says otherwise.
# UniProt Q96L91, whole entry, looked up: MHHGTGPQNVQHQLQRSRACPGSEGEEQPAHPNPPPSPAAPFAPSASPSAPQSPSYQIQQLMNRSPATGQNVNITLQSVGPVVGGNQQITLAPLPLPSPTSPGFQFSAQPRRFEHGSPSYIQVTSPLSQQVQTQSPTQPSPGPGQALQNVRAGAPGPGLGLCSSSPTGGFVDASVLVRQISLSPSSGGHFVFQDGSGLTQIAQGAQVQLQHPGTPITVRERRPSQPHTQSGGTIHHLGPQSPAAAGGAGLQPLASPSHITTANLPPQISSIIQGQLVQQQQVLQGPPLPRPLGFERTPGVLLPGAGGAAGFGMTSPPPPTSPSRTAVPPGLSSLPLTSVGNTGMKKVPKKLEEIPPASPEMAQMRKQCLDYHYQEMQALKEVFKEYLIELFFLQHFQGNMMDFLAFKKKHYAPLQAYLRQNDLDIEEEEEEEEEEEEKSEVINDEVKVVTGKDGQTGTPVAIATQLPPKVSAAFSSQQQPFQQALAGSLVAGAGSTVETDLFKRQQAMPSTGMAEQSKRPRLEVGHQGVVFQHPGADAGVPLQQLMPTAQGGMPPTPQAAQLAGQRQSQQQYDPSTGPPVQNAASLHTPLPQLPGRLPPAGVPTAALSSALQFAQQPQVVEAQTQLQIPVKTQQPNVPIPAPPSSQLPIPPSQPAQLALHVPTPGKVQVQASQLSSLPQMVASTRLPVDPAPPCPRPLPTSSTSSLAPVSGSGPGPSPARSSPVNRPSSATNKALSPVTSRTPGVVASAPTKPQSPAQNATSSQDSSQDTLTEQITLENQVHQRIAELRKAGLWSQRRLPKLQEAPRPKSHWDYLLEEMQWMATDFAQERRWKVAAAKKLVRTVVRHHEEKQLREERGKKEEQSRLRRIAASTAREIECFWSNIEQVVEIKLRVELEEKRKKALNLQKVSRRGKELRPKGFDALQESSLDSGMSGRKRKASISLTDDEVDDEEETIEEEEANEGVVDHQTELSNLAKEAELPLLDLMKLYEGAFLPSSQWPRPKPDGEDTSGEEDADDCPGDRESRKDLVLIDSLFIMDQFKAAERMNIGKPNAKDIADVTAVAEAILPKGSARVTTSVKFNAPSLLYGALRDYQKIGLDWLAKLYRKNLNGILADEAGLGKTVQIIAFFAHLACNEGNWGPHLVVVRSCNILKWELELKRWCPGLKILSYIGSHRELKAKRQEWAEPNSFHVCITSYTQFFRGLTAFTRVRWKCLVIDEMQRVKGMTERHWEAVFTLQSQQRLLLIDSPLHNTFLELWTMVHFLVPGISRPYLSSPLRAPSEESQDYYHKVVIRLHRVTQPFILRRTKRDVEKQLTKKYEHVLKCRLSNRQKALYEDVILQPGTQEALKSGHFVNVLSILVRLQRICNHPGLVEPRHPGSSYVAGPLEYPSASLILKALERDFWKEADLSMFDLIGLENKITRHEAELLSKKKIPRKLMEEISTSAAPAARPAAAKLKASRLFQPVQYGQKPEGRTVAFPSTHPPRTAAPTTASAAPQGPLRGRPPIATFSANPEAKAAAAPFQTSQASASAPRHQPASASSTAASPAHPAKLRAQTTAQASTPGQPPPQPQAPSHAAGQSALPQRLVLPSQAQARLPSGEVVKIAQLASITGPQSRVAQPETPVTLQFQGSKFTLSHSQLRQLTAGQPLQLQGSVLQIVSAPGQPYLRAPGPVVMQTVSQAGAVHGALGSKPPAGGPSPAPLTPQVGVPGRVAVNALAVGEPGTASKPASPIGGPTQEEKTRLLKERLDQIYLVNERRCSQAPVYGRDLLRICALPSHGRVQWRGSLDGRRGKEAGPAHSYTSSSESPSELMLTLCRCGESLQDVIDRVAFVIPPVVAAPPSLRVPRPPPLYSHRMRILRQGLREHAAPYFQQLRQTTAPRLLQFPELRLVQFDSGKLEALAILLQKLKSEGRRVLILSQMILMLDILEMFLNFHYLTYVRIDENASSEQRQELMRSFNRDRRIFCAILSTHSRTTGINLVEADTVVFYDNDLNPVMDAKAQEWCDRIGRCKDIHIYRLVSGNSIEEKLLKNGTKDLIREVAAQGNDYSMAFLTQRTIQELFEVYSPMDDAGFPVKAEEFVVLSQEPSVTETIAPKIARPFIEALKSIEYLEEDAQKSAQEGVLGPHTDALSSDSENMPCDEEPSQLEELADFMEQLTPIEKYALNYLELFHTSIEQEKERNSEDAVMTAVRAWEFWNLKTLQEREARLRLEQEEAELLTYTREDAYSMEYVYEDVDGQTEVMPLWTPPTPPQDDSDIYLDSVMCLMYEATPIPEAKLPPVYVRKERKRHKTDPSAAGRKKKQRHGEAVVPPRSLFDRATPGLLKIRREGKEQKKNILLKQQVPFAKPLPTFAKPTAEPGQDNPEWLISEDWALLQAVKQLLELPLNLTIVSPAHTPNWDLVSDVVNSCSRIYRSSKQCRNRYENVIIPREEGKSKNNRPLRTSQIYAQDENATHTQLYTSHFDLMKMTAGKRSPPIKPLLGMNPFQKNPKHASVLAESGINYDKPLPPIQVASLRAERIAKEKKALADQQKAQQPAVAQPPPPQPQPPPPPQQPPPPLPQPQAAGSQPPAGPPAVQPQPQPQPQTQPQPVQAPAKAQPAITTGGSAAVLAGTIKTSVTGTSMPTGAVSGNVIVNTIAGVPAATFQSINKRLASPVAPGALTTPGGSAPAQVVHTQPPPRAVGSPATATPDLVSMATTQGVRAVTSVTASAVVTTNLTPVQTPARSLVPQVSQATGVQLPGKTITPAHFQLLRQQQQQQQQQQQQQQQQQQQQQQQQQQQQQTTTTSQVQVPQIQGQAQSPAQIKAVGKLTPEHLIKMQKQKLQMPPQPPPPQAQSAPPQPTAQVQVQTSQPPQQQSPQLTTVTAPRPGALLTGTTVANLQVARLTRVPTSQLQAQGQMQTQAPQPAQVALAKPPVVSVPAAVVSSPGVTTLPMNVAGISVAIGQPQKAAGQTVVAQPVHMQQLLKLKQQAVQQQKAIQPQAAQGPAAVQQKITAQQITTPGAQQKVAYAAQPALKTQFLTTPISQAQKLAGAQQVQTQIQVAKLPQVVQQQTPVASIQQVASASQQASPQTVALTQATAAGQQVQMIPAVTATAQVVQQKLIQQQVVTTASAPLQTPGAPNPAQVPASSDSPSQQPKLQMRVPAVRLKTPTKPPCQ
# UniProt O43414: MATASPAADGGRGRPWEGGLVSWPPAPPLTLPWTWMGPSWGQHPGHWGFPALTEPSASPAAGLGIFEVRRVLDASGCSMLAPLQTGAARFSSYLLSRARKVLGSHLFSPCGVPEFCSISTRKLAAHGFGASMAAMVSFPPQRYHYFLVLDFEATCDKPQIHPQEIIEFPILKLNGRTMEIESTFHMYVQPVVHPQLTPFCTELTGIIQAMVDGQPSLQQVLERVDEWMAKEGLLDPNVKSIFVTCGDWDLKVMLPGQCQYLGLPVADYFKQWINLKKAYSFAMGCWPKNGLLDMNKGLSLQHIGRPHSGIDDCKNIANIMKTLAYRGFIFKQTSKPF
# UniProt Q09472, whole entry, looked up: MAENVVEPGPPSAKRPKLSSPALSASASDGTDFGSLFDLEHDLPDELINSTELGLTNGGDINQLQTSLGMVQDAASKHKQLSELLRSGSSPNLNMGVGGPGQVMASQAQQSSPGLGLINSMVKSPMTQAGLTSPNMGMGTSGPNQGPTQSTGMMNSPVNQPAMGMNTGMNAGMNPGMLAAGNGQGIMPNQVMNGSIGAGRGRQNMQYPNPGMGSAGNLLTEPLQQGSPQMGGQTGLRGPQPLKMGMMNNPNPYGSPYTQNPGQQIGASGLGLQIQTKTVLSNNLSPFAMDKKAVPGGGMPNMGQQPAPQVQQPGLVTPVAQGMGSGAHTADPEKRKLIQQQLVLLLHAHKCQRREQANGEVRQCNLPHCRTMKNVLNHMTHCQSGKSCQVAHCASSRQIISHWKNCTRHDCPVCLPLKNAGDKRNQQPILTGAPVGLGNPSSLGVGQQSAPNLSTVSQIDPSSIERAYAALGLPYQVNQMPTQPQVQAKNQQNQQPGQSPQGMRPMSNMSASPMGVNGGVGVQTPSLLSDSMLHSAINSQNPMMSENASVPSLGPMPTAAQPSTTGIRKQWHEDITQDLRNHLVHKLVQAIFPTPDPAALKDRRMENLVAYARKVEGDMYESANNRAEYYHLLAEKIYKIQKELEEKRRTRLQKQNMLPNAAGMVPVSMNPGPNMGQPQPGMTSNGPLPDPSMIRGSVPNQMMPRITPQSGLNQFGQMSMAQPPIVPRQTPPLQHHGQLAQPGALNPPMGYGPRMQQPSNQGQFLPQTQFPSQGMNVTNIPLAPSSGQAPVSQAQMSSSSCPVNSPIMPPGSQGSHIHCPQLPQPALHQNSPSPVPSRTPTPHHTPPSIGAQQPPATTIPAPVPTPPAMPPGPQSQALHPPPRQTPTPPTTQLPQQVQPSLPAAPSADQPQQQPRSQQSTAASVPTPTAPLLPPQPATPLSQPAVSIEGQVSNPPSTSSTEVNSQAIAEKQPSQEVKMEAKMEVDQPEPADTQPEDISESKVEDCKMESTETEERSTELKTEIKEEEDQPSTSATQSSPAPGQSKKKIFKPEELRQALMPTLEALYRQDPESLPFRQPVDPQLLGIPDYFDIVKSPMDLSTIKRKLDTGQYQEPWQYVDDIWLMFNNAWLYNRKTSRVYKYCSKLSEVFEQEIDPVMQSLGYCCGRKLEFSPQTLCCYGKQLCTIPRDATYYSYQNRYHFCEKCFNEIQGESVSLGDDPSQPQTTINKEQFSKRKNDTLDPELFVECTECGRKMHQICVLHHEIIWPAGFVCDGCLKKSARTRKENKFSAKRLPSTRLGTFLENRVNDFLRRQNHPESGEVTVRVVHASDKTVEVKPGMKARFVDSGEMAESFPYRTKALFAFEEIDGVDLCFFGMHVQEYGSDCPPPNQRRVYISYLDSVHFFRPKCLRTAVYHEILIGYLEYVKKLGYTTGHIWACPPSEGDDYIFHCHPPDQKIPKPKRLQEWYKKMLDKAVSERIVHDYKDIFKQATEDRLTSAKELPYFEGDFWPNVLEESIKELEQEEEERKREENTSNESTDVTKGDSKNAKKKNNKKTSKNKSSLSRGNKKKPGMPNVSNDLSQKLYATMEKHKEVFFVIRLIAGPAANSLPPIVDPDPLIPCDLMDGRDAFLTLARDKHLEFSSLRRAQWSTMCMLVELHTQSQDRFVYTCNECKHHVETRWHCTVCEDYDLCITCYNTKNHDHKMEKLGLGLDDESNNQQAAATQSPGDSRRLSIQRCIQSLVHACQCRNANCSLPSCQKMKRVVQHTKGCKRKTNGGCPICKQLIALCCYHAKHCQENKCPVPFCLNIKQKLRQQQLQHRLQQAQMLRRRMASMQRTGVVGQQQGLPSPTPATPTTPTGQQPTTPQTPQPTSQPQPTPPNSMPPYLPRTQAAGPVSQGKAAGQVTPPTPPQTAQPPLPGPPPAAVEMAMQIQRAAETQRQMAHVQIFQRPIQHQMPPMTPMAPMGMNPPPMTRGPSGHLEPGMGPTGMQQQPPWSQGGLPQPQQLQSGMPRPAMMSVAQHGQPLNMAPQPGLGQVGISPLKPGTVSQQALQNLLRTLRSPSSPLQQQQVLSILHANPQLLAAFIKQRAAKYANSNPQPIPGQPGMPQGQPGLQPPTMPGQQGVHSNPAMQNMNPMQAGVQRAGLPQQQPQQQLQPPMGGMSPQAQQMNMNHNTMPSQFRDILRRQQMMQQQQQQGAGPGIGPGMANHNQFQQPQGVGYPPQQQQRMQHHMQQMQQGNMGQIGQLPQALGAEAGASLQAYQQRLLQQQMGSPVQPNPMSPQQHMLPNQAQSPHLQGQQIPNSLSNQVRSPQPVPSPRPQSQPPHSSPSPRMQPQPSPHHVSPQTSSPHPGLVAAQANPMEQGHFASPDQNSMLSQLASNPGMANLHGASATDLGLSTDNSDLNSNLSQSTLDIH
# UniProt Q9Y262, whole entry, looked up: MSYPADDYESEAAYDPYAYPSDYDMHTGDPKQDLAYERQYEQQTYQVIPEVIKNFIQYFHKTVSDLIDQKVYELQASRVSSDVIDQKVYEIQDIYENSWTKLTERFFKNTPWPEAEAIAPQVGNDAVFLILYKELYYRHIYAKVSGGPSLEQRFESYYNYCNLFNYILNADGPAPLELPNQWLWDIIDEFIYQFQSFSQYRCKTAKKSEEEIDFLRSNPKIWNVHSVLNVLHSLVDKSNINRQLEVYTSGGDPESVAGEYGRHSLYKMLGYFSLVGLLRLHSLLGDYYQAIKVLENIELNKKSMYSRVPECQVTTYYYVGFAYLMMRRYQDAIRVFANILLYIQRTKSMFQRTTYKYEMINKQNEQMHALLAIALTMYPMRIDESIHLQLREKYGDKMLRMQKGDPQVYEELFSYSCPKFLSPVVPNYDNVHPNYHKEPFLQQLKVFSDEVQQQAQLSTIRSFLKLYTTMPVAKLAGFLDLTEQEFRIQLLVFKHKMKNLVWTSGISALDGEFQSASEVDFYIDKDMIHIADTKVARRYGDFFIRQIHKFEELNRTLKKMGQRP
# Assays:
# Assay in all cases: log2 fold change, soluble protein after heating vs DMSO (PISA); higher = thermal stabilisation; K562 lysate, 10 uM; active = over 0.2 and 3.5 SD of the protein, either way, in both replicates (recomputed)
# nilotinib = compound: Cc1cn(-c2cc(NC(=O)c3ccc(C)c(Nc4nccc(-c5cccnc5)n4)c3)cc(C(F)(F)F)c2)cn1 [nilotinib]
# Outline: (§1)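 A 30 min treatment with 10 μM compound was applied to crude K562 extract at 1 mg/mL protein in PBS pH 7.4 with 1 mM MgCl2. Heating for 3 min spanned 48°C-58°C, after which aliquots were pooled, adjusted to 0.5% NP-40 at 4°C and spun at 21,000xg for 90 min. TMTpro 16plex LC-MS/MS of the supernatant, with channel sums equalised, gave values recorded as log-two fold change in thermal stability against solvent controls, from duplicates.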
# [1] = compound: Cc1nc(Nc2n[nH]c3c2CN(C(=O)N[C@H](CN(C)C)c2ccccc2)C3(C)C)c2sccc2n1
# Outline: as §1
# dasatinib = compound: Cc1nc(Nc2ncc(C(=O)Nc3c(C)cccc3Cl)s2)cc(N2CCN(CCO)CC2)n1 [dasatinib]
# Outline: as §1
# [2] = compound: Cc1ncc(-c2ccnc(Nc3ccc(S(C)(=O)=O)cc3)n2)n1C(C)C
# Outline: as §1
# [3] = compound: Cn1cc(-c2ccc3c(c2)CCN3C(=O)Cc2cccc(C(F)(F)F)c2)c2c(N)ncnc21
# Outline: as §1
# quisinostat = compound: Cn1cc(CNCC2CCN(c3ncc(C(=O)NO)cn3)CC2)c2ccccc21 [quisinostat]
# Outline: as §1
# tipifarnib = compound: Cn1cncc1[C@@](N)(c1ccc(Cl)cc1)c1ccc2c(c1)c(-c1cccc(Cl)c1)cc(=O)n2C [tipifarnib]
# Outline: as §1
# [4] = compound: NC(=O)Nc1cc(-c2cccc(F)c2)sc1C(=O)N[C@H]1CCCNC1
# Outline: as §1
# [5] = compound: NC(=O)c1cnc(N[C@@H]2CCCC[C@@H]2N)nc1Nc1cccc(-n2nccn2)c1
# Outline: as §1
# [6] = compound: NC1(c2ccc(-c3nc4ccn5c(=O)[nH]nc5c4cc3-c3ccccc3)cc2)CCC1
# Outline: as §1
# [7] = compound: NCC(=O)Nc1ccc(-n2nc(C(F)(F)F)cc2-c2ccc3c(ccc4ccccc43)c2)cc1
# Outline: as §1
# vorinostat = compound: O=C(CCCCCCC(=O)Nc1ccccc1)NO [vorinostat]
# Outline: as §1
# silmitasertib = compound: O=C(O)c1ccc2c(c1)nc(Nc1cccc(Cl)c1)c1ccncc12 [silmitasertib]
# Outline: as §1
# [8] = compound: O=C1NC(=O)C(c2cnc3ccccn23)=C1c1cn2c3c(cc(F)cc13)CN(C(=O)N1CCCCC1)CC2
# Outline: as §1
# entospletinib = compound: c1cn2cc(-c3ccc4cn[nH]c4c3)nc(Nc3ccc(N4CCOCC4)cc3)c2n1 [entospletinib]
# Outline: as §1
Target,log2 fold change (nilotinib),log2 fold change [1],log2 fold change (dasatinib),log2 fold change [2],log2 fold change [3],log2 fold change (quisinostat),log2 fold change (tipifarnib),log2 fold change [4],log2 fold change [5],log2 fold change [6],log2 fold change [7],log2 fold change (vorinostat),log2 fold change (silmitasertib),log2 fold change [8],log2 fold change (entospletinib)
ENDOD1 (UniProt O94919),inactive: 0.108,inactive: 0.048,inactive: 0.015,inactive: -0.034,inactive: 0.025,inactive: 0.13,inactive: -0.105,inactive: 0.021,inactive: -0.006,inactive: -0.03,inactive: -0.046,inactive: 0.136,inactive: -0.013,inactive: -0.031,inactive: -0.004
EP400 isoform 5 (UniProt Q96L91),inactive: -0.05,inactive: -0.04,inactive: 0.001,inactive: -0.025,inactive: -0.005,inactive: -0.014,inactive: 0.04,inactive: 0.012,inactive: 0.019,inactive: -0.003,inactive: -0.047,active: -0.279,inactive: 0.024,inactive: -0.025,inactive: -0.021
ERI3 (UniProt O43414),inactive: -0.01,inactive: 0.017,inactive: 0.013,inactive: 0.017,inactive: -0.013,inactive: -0.06,inactive: 0.004,inactive: 0.011,inactive: -0.007,inactive: -0.069,inactive: -0.045,inactive: -0.069,inactive: 0.017,inactive: -0.007,inactive: 0.012
ENO1 isoform 2 (UniProt P06733),inactive: 0.01,inactive: -0.009,inactive: 0.021,inactive: -0.036,inactive: -0.012,inactive: -0.038,inactive: 0.035,inactive: -0.007,inactive: -0.008,inactive: 0.004,inactive: -0.008,inactive: 0.099,inactive: 0.045,inactive: 0.005,inactive: -0.05
"EPB41, A0A2R8Y6D0",inactive: -0.033,inactive: 0.312,inactive: 0.091,inactive: -0.044,inactive: -0.021,inactive: -0.017,inactive: -0.055,inactive: 0.043,inactive: -0.042,inactive: -0.054,inactive: 0.082,inactive: 0.094,inactive: 0.037,inactive: -0.08,inactive: 0.016
EIF3G (UniProt K7ER90),inactive: -0.028,inactive: -0.079,inactive: -0.025,inactive: 0.036,inactive: 0.026,inactive: -0.314,inactive: -0.055,inactive: -0.005,inactive: 0.05,inactive: -0.033,inactive: 0.024,inactive: -0.17,inactive: 0.057,inactive: -0.086,inactive: -0.034
"EIF4G3, A0A0U1RQK7",inactive: 0.019,inactive: -0.02,inactive: -0.025,inactive: 0.022,inactive: 0.018,inactive: -0.017,inactive: -0.045,inactive: 0.054,inactive: 0.02,inactive: 0.017,inactive: -0.013,inactive: -0.201,inactive: -0.014,inactive: -0.045,inactive: -0.031
EIF2B1 (UniProt Q14232),inactive: 0.008,inactive: -0.026,inactive: 0.05,inactive: 0.039,inactive: -0.021,inactive: 0.068,inactive: 0.019,inactive: -0.017,inactive: -0.021,inactive: 0.002,inactive: -0.006,inactive: 0.076,inactive: -0.025,inactive: 0.004,inactive: 0.018
EP300 (UniProt Q09472),inactive: 0.036,inactive: 0.037,inactive: -0.028,inactive: 0.081,inactive: 0.007,inactive: 0.03,inactive: -0.043,inactive: 0.036,inactive: 0.023,inactive: 0.046,inactive: 0.018,active: -0.338,inactive: 0.06,inactive: 0.015,inactive: -0.005
ERCC1 (UniProt P07992),inactive: -0.013,inactive: 0.054,inactive: -0.043,inactive: -0.044,inactive: -0.052,inactive: 0.097,inactive: -0.007,inactive: 0.021,inactive: 0.043,inactive: 0.012,inactive: -0.088,inactive: -0.103,inactive: 0.032,inactive: 0.084,inactive: -0.134
EIF3L (UniProt Q9Y262),inactive: -0.019,inactive: -0.016,inactive: 0.013,inactive: 0.01,inactive: 0.008,inactive: 0,inactive: 0.015,inactive: 0.015,inactive: -0.003,inactive: -0.027,inactive: -0.007,inactive: 0.062,inactive: -0.004,inactive: -0.013,inactive: 0.012

# An excerpt of these results, with bars between the fields:
Target | log2 fold change (nilotinib) | log2 fold change [1] | log2 fold change (dasatinib) | log2 fold change [2] | log2 fold change [3] | log2 fold change (quisinostat) | log2 fold change (tipifarnib) | log2 fold change [4] | log2 fold change [5] | log2 fold change [6] | log2 fold change [7] | log2 fold change (vorinostat) | log2 fold change (silmitasertib) | log2 fold change [8] | log2 fold change (entospletinib)
ERI3 (UniProt O43414) | inactive: -0.01 | inactive: 0.017 | inactive: 0.013 | inactive: 0.017 | inactive: -0.013 | inactive: -0.06 | inactive: 0.004 | inactive: 0.011 | inactive: -0.007 | inactive: -0.069 | inactive: -0.045 | inactive: -0.069 | inactive: 0.017 | inactive: -0.007 | inactive: 0.012
ENO1 isoform 2 (UniProt P06733) | inactive: 0.01 | inactive: -0.009 | inactive: 0.021 | inactive: -0.036 | inactive: -0.012 | inactive: -0.038 | inactive: 0.035 | inactive: -0.007 | inactive: -0.008 | inactive: 0.004 | inactive: -0.008 | inactive: 0.099 | inactive: 0.045 | inactive: 0.005 | inactive: -0.05

# Reference: the supplement of paper PMC10849652
